In PubChem BioAssay (Tox21):
Values joined by “and” are separate entries in the source; they are usually repeats but may differ in a detail not shown here. Identical values can stand only once. The inconclusive results got no clear call from the source; some entries with a clear call stand among them for comparison. A potency beside an inconclusive call is a rough fit, not a confirmed value. Active and inactive are the calls of the source. The call rests on the fitted dose curve.
On the % scale 0 is the no-effect control and ±100 the full control effect; potency means the concentration at half of the fitted maximal effect.

Assay: Nuclear factor erythroid 2-related factor 2/antioxidant responsive element (Nrf2/ARE) small molecule agonists: luciferase reporter gene qHTS assay in human keratinocytes (AID 1919969); further: nearly all actives have a fitted effect of over 35% in size
Details: KeratinoSens HaCaT ARE-luciferase, luminescence, 24 h; activity, positive = activation: at 92.4 µM (top of the series)
With `N[C@H](Cc1c[nH]c2ccccc12)C(=O)O` the Potency was inconclusive: 33.5 µM [activator, single point].
For `C=C[C@@H](C)CCC=C(C)C`, the “activity, positive = activation” value was inactive: -5.61%.
In the case of `CC(=O)c1ccccc1N`, the “activity, positive = activation” value is reported as inactive: -8.19%.
For `O=C(O)c1ccccc1Nc1cc(Cl)ccc1C(=O)O`, the Potency was inconclusive: 16.4 µM [activator, single point].
For `O=C1Nc2ccccc2C1(c1ccc(O)cc1)c1ccc(O)cc1`, the Potency was active: 386 nM and active: 841 nM.
With `CCCCOC(=O)c1ccc(O)cc1` the Potency was inconclusive: 24.6 µM [activator, partial curve] and inconclusive: 19.3 µM [activator, partial curve] and inconclusive: 23.7 µM [activator].
For `NC(=O)c1ccc([N+](=O)[O-])cc1Cl`, the Potency was inconclusive: 68.6 µM [activator, single point].
For `CCCCC/C(C=O)=C\c1ccccc1`, the Potency was inconclusive: 61.2 µM [activator, single point] and inconclusive: 77 µM [activator, partial curve, poor fit].
With `Oc1cccc(Nc2ccccc2)c1` the Potency was inconclusive: 32 µM [activator, partial curve, poor fit].
For `CC(=O)CC(=O)Nc1ccc(S(=O)(=O)O)cc1`, the Potency was inconclusive: 27.3 µM [activator, single point].
In the case of `CC(CN)CCCN` (stereo not given), the Potency is reported as inconclusive: 68.6 µM [activator, single point].
In the case of `Oc1c(Br)cc(Br)c2cccnc12`, the Potency is reported as active: 0.841 µM.
With `O=C1CCN(c2ccccc2)N1` the “activity, positive = activation” value was inactive: 4.52%.
In the case of `CCN(CCO)CCCC(C)Nc1ccnc2cc(Cl)ccc12` (stereo not given), the activity, positive = activation is reported as inactive: -5.51% [at 8.39 µM].
In the case of `C=C1CC[C@H](O)CC1=C/C=C1\CCC[C@]2(C)[C@@H]([C@H](C)/C=C/[C@H](C)C(C)C)CC[C@@H]12`, the Potency is reported as active: 21.5 µM and active: 61.1 µM.
For `C=C1CCC2CC1C2(C)C` (stereo not given), the “activity, positive = activation” value was inactive: -5.57%.
For `COc1ccc2cc1Oc1ccc(cc1)C[C@H]1c3c(cc4c(c3Oc3cc5c(cc3OC)CCN(C)[C@@H]5C2)OCO4)CCN1C`, the Potency was inconclusive: 33.5 µM [activator, single point].
With `Cc1ccc([N+](=O)[O-])cc1Cl` the Potency was inconclusive: 61.9 µM [activator, partial curve].
For `O=C(O)c1snc(Cl)c1Cl`, the Potency was active: 68.6 µM.
In the case of `N=C1N=C(N)c2ccccc21`, the Potency is reported as active: 27.3 µM.
With `O=S(=O)(Oc1ccc(Cl)cc1Cl)c1ccccc1` the Potency was inconclusive: 27.3 µM [activator, single point].
For `C[C@@H]1[C@H](O)[C@@H](C)/C=C/C=C\C=C\C=C\C=C\C=C\C=C\[C@H](O[C@@H]2O[C@H](C)[C@@H](O)[C@H](N)[C@@H]2O)C[C@@H]2O[C@](O)(C[C@@H](O)C[C@@H](O)[C@H](O)CC[C@@H](O)C[C@@H](O)CC(=O)O[C@H]1C)C[C@H](O)[C@H]2C(=O)O` (stereo in doubt), the Potency was active: 68.6 µM.
For `OC[C@H]1O[C@@H](Oc2ccc(O)cc2)[C@H](O)[C@@H](O)[C@@H]1O`, the Potency was “inactive”.
In the case of `C=CC(C)(O)CCC=C(C)C` (stereo not given), the Potency is reported as “inactive and inconclusive: 77 µM [activator, partial curve, poor fit]”.
In the case of `O=C(O)c1cccc(Oc2ccccc2)c1`, the “activity, positive = activation” value is reported as inactive: -11.1%.
For `C/C(CC(C)C)=N\O`, the Potency was inconclusive: 15.4 µM [activator, single point].
In the case of `CC(C)Oc1ccccc1O`, the “activity, positive = activation” value is reported as inactive: -1.33%.
With `O=C(O)c1cc(-c2ccccc2)nc2ccccc12` the Potency was inconclusive: 68.6 µM [activator, single point].
For `COc1ccc(-n2nc(C(F)F)cc2-c2ccc(S(C)=O)cc2)cc1` (stereo not given), the “activity, positive = activation” value was inactive: -24.3%.
For `C/C=C/C(=O)O`, the Potency was “inactive”.
With `O=C1c2c(O)cccc2Cc2cccc(O)c21` the Potency was “inactive”.
For `CN1CCN(N)CC1`, the “activity, positive = activation” value was inactive: -1.05% [at 42.5 µM].
For `Nc1nc(-c2ccccc2)c(Br)c(=O)[nH]1`, the “activity, positive = activation” value was inactive: -2.15% [at 42.5 µM].
In the case of `Nc1ccc(Oc2ccc(N)c(N)c2)cc1`, the Potency is reported as active: 6.11 µM.
With `O=C(O)c1ccc(S(=O)(=O)O)cc1C(=O)O` the Potency was inconclusive: 15.4 µM [activator, single point].
For `NC(N)=O`, the Potency was “inactive”.
In the case of `CCOC(=O)CC`, the “activity, positive = activation” value is reported as inactive: -11.3%.
For `OCCCCCCCCCCCCBr`, the Potency was inconclusive: 55.3 µM [activator, partial curve].
With `CCCCCCC[N+](CC)(CC)CCCCc1ccc(Cl)cc1` the Potency was inconclusive: 33.5 µM [activator, partial curve, poor fit].
For `Nc1ccc(S(=O)(=O)O)cc1`, the “activity, positive = activation” value was inactive: -7.21%.
